Binding data for one substance are collected here from PMC10182996.

By UniProt entry, the sequences of proteins in these tests, tags left out.
UniProt O00401: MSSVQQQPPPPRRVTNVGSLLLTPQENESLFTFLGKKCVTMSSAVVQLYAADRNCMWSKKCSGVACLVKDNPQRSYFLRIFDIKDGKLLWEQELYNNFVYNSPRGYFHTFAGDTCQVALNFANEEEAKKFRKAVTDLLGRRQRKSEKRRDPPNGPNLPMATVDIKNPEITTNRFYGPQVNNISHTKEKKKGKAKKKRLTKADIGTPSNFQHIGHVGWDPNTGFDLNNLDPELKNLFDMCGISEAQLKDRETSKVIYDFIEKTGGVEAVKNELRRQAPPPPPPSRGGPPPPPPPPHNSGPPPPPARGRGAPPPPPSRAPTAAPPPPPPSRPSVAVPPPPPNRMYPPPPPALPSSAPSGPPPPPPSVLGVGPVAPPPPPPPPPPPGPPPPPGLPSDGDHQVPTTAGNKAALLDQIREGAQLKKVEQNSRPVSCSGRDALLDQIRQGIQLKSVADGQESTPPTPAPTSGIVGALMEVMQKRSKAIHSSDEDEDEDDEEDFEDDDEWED
UniProt O43516: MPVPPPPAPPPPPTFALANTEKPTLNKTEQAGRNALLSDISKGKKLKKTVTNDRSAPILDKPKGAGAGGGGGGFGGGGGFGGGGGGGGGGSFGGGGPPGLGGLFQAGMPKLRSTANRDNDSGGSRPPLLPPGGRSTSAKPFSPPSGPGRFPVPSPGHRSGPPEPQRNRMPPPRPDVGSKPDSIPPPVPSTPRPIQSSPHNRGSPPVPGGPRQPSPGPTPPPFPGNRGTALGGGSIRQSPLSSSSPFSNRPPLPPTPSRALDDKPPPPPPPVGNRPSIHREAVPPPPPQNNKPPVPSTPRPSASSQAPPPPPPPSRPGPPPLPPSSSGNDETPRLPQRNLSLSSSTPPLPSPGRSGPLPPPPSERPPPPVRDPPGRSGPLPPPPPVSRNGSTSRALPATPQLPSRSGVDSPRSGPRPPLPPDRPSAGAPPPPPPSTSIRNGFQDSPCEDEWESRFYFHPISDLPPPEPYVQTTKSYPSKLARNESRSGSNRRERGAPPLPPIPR

These are yes or no findings as the source states them, for the method shown. Some entries that bind do so weakly or less than the wild type.

The target in the assay is GFP-N-WASP (wild type) (human) (UniProt O00401). Put plainly: recruitment to mitochondria-targeted bait (confocal microscopy); MitoCPn0677-C co-expressed in HEp-2 cells with Wip and N-WASP together.

As for GFP-Wip (from UniProt O43516 1-503), the binding entry was “binds”.
